Laboratory results taken from article doi:10.1101/2023.12.20.572709.

Chains of the proteins cited; added tags and fusions are not shown.
UniProt P27361: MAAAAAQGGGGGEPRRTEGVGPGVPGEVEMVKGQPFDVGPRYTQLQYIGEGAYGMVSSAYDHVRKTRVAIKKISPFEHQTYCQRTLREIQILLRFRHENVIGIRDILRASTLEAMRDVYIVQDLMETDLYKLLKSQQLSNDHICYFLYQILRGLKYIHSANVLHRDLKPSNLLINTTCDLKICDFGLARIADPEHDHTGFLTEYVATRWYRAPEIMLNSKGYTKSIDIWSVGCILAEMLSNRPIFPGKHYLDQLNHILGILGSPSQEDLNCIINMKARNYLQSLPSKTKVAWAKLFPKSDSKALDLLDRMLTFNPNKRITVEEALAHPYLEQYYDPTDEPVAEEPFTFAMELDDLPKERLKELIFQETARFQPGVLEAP
UniProt P43694: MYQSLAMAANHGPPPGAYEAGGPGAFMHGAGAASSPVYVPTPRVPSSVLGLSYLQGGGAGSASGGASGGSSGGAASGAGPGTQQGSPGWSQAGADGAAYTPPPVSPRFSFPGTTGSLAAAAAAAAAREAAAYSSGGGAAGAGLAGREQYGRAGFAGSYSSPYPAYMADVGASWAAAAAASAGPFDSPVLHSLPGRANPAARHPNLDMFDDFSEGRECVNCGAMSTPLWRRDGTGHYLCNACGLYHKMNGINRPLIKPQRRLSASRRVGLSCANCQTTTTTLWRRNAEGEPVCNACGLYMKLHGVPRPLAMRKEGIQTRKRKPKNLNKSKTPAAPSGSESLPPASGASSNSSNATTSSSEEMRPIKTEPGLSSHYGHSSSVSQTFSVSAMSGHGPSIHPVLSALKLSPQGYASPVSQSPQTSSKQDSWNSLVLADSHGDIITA
UniProt P28482: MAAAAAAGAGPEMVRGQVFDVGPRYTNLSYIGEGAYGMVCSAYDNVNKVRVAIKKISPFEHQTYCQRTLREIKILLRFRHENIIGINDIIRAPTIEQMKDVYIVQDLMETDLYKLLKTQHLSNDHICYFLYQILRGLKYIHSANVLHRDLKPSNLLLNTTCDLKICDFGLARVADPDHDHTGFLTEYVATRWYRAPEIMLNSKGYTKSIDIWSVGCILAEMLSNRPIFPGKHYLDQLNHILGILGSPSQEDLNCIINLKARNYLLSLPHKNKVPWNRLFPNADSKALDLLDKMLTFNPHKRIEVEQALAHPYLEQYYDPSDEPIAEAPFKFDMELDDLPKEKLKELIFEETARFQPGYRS

Molecular target: T1, Fibroblast growth factor 12 (FGF12) (human (endogenous in myocardial tissue)) (UniProt P61328)
T1 sequence: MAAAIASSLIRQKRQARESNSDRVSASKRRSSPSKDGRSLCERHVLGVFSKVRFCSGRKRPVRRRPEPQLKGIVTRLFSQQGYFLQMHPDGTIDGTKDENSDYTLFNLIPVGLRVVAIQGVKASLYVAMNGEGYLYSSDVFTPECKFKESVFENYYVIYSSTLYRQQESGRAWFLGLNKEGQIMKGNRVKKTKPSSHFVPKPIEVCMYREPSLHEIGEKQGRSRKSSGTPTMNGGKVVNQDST
Experiment: affinity purification with mass spectrometry

Substance | binding
mitogen-activated protein kinase 3 (MAPK3) (from UniProt P27361 1-379) | binds
GATA binding protein 4 (GATA4) (from UniProt P43694 1-442) | binds
mitogen-activated protein kinase 1 (MAPK1) (from UniProt P28482 1-360) | binds

Results are given in words; binding and its absence hold for the method and conditions named. In cells and extracts the contact can be indirect. A yes stands for co-enrichment or nearness to the bait. Other partners may have been found.
